Publication PMC9831654
These are yes or no findings as the source states them, for the method shown. In cells and extracts the contact can be indirect. A yes stands for co-enrichment or nearness to the bait. Other partners may have been found.

Sequences of proteins named here, by UniProt entry; tags and fusion partners are left off.
UniProt P54652: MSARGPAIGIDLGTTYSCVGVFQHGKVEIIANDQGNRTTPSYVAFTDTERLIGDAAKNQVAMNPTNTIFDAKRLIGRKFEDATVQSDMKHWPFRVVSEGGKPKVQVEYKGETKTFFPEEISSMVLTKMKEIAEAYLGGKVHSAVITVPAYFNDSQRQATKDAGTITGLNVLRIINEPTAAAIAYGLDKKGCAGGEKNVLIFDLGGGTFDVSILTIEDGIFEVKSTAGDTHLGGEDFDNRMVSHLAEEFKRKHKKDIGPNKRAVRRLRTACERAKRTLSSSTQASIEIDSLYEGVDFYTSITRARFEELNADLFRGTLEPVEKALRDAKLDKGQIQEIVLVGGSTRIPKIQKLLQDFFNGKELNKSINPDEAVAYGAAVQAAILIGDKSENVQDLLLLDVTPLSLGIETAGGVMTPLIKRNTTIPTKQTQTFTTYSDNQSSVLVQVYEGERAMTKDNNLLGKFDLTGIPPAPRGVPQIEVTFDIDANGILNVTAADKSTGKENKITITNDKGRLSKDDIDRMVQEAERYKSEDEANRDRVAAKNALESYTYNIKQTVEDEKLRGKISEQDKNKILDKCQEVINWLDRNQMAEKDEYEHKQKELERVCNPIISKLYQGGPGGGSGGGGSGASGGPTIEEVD

Target: USP20 (bait of the co-immunoprecipitation analysed by mass spectrometry) (UniProt Q9Y2K6)
Assay: affinity purification with mass spectrometry; co-immunoprecipitation, gel pieces digested with trypsin, Q Exactive Plus; searched against the SwissProt human database; bait form and cells not stated

binding: binds
Substance: HSPA2 (hit of the mass spectrometry of the USP20 co-immunoprecipitate) (from UniProt P54652 1-639)
